In PMC12483965:
Results are given in words; binding and its absence hold for the method and conditions named. In cells and extracts the contact can be indirect. Some entries that bind do so weakly or less than the wild type. Sequences can lack the tags named with a protein.

Molecular target: T1, LA5-nLUC (rice (Oryza sativa L. subsp. japonica, ZH11 cDNA)) (UniProt Q8H8V7)
T1 sequence: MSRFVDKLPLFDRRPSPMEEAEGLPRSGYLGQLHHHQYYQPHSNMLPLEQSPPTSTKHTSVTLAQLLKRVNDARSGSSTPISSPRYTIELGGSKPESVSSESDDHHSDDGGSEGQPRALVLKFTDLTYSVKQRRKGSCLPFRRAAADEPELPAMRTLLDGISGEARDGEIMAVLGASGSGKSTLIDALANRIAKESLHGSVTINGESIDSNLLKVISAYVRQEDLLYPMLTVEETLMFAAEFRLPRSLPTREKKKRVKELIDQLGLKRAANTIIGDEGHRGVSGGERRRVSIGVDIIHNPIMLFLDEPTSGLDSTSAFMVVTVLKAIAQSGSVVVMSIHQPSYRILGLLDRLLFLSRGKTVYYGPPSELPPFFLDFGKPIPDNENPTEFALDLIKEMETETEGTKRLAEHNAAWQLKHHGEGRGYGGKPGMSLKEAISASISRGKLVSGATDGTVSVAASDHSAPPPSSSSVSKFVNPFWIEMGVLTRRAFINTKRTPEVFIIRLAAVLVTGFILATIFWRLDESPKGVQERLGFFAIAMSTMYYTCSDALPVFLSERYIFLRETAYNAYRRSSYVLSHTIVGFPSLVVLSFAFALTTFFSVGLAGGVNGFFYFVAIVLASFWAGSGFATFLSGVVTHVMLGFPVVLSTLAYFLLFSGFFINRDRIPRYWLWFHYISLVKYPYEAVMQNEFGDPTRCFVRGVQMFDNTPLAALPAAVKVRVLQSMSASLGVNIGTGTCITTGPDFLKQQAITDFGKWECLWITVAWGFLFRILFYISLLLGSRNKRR
Assay: split reporter; luciferase complementation imaging (LCI): LA5-nLUC and OsPIN3t-cLUC co-injected into N. benthamiana leaves, beetle luciferin as substrate

B1: OsPIN3t-cLUC (protein, UniProt Q5VP70 1-618)
chain: MISGHDFYTVMAAVVPLYVAMFLAYGSVRWWGIFTPDQCSGINRFVAIFAVPLLSFHFISTNDPYAMNLRFLAADTLQKLLVLAGLAAWSRLPSRTGAPRLDWSITLFSLSTLPNTLVMGIPLLIAMYGPYSGSLMVQIVVLQCIIWYTLMLFLFEFRAARMLIADQFPDTAASIVSLHVDPDVVSLEGGHAETEAEVAADGRLHVTVRRSSVSRRSLLVTPRPSNLTGAEIYSLSSSRNPTPRGSNFNHADFFAMVGGGPPPPTPAAVRGSSFGASELYSLQSSRGPTPRQSNFDEHSARPPKPPATTTGALNHDAKELHMFVWSSSASPVSEVSGLPVFSGGGGGGALDVGAKEIHMVIPADLPQNNGSGKEHEEYGAVALGGGGGGENFSFGGGKTVDGAEAVDEEAALPDGLTKMGSSSTAELHPKVVDVDGPNAGGGAAGAGQYQMPPASVMTRLILIMVWRKLIRNPNTYSSLLGLAWSLVAFRWHVSMPAIVEKSISILSDAGLGMAMFSLGLFMALQPSIIACGKSAAVVSMAVRFLAGPAVMAAASIAIGLRGTLLHVAIVQAALPQGIVPFVFAKEYNVHPAILSTAVIFGMLIALPITLLYYILLGL
binding: binds
